Measured values published in ChEMBL document CHEMBL5260817, “Polyamine-based analogs and conjugates as antikinetoplastid agents” (Eur J Med Chem, 2017).

Sequences of proteins named here, by UniProt entry; tags and fusion partners are left off. A change or cut given only in a name is not applied to a line headed by its entry.
UniProt P28593: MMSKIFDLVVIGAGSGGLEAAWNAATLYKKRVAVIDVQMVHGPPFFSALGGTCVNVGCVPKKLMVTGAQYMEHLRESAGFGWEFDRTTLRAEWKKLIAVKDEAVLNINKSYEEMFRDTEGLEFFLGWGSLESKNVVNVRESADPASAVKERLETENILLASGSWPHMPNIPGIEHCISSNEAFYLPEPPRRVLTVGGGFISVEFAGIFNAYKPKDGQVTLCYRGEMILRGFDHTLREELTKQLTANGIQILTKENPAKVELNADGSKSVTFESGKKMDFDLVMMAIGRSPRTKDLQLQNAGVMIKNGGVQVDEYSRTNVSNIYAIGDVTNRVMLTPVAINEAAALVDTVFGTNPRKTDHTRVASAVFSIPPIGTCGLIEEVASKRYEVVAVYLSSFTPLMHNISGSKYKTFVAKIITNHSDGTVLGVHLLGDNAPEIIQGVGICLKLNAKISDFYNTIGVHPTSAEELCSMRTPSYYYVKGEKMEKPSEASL

Biological target: Trypanothione reductase (Trypanosoma cruzi, UniProt P28593)

CN(C)CCCN1c2ccccc2CCc2ccc(Cl)cc21 [CLOMIPRAMINE]
IC50: 3.8 µM
